Test results taken from publication PMC7206140.
Results are given in words; binding and its absence hold for the method and conditions named. In cells and extracts the contact can be indirect. These calls come from enrichment with a bait or labelling near it, and not all partners need be listed. Sequences can lack the tags named with a protein.

By UniProt entry, the sequences of proteins in these tests, tags left out. Residues count along the entry.
UniProt P10809, residues 27-573: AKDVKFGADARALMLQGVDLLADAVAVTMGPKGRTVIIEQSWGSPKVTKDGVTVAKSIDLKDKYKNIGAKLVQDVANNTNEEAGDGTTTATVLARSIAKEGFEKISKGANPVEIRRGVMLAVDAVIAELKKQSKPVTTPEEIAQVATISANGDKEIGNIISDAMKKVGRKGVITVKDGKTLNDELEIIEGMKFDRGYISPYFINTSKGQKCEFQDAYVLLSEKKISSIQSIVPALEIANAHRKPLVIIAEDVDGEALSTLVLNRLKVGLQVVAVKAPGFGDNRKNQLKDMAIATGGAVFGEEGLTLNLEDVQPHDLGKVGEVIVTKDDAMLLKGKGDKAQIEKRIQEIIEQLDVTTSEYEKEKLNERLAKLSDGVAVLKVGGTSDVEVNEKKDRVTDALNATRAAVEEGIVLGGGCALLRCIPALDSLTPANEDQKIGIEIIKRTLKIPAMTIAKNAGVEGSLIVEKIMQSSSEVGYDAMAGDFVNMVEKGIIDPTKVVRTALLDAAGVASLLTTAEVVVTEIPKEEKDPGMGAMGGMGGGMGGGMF

Biological target: T1, GFP-tagged NT5DC2 (5'-Nucleotidase domain containing 2) (human) (UniProt Q9H857)
T1 sequence: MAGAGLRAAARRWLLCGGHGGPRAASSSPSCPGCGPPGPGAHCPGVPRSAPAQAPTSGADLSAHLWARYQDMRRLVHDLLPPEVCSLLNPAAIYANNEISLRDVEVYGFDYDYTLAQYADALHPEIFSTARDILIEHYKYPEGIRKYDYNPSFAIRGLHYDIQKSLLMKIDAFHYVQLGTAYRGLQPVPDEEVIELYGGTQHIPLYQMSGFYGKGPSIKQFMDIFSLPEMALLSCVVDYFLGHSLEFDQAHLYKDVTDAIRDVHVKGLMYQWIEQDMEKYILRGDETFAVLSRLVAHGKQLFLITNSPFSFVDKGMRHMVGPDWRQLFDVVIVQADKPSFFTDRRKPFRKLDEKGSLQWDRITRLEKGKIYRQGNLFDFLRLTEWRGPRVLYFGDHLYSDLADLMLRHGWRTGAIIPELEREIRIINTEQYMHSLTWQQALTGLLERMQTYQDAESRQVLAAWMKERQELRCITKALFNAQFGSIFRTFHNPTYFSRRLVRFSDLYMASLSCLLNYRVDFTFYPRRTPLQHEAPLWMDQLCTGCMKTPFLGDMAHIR
Assay: affinity purification with mass spectrometry; anti-GFP mAb-coated agarose beads on MHCC97H cells stably overexpressing GFP-NT5DC2 or a GFP vector control; LC-MS/MS, Mascot score over 60; hits overlapped with the HIPPIE database

binding: binds
Substance: HSPD1 (from UniProt P10809 27-573)
